The source of these data is patent publication US20100021421A1 (MCGILL UNIVERSITY, published 2010).

For this experiment, the target named is T1, recombinant mouse IL-15Ralpha-Fc (mouse), Q60819.
T1 chain: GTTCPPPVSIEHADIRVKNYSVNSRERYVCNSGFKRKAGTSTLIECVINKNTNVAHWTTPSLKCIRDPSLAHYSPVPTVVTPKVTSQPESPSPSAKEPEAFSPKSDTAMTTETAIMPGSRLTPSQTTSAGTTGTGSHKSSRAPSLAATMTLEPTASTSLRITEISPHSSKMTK
Nature of the experiment: SPR (BIACORE 3000), rIL-15Rα-Fc amine-coupled on a CM5 chip, analyte injected 180 sec association + 180 sec dissociation. Particulars: remark: other sources report otherwise. (In SPR one partner is held on a chip, and binding of the other changes the refractive index at the surface.)

No constants are given. Whether binding was seen depends on the method and setting. Some entries that bind do so weakly or less than the wild type. Where a sequence is shown, tags or fusion partners need not be part of it.

B1: recombinant mouse IL-15, P48346 49-162 (ligand, UniProt P48346 49-162, looked up)
chain: NWIDVRYDLEKIESLIQSIHIDTTLYTDSDFHPSCKVTAMNCFLLELQVILHEYSNMTLNETVRNVLYLANSTLSSNKNVAESGCKECEELEEKTFTEFLQSFIRIVQMFINTS
In the case of B1, the binding entry was “binds”.
